Results deposited as PubChem BioAssay AID1259308 (NCATS, 2017).
Aim: 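Genes whose loss raises luciferase production in HEK293 cells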 (primary screen). System: human HEK293 embryonic kidney cells stably expressing firefly luciferase (HEK-CMV-Luc2-Hygro). Knock-down reagent: single siRNA against human genes, 0.8 pmol siRNA per well. Timing: 72 h. Detection: 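Reporter luminescence and viable-cell signal on separate replicate plates, given as percent of non-targeting control and median/MAD z-scores, plus per-cell luciferase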. Reading the numbers: total luciferase, z-score and total luciferase, % of control: higher = more reporter protein produced; luciferase per cell, z-score: higher = more reporter output per viable cell; viable cells, % of control: higher = more viable cells. Call rule: 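Active when the median/MAD z-score for overall luciferase is greater than 3; a gene was taken forward for validation with new siRNAs if at least two of its three siRNAs passed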. Meaning of the calls: active = raised luciferase; inactive = no rise.
This is a random part of about 59,000 reagents. About 1,510 of all reagents (2.6%) were called active. 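Calls use total luciferase alone and ignore viability, so some active siRNAs may act by altering cell number.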

| target gene | PubChem SID | total luciferase, z-score | total luciferase, % of control | luciferase per cell, z-score | viable cells, % of control | call |
| --- | --- | --- | --- | --- | --- | --- |
| NF1 | SID160725878 | 0.394 | 89.7 | -0.152 | 104 | inactive |
| NF1 | SID160725879 | -1.3 | 56.1 | -1.25 | 87.1 | inactive |
| NF1 | SID160733966 | 2.36 | 129 | 1.14 | 107 | inactive |
| NF1 | SID160777980 | 1.41 | 110 | 0.802 | 99.4 | inactive |
| NF1 | SID160777981 | -0.666 | 68.6 | 1.24 | 55.4 | inactive |
| NF1 | SID160777982 | -0.618 | 69.6 | -1.45 | 114 | inactive |
| HAMP | SID160724498 | 0.824 | 98.3 | 0.815 | 88.6 | inactive |
| HAMP | SID160724499 | 0.21 | 86.1 | 0.449 | 85.5 | inactive |
| HAMP | SID160746730 | -0.342 | 75.1 | -0.455 | 94.6 | inactive |
| NUDT1 | SID160731250 | -0.686 | 68.2 | -0.492 | 86.8 | inactive |
| NUDT1 | SID160777526 | -0.395 | 74 | 0.859 | 66 | inactive |
| NUDT1 | SID160777527 | 1.7 | 116 | 1.32 | 91.4 | inactive |
| SLC67A1-AS | SID160778442 | -0.0266 | 81.4 | 0.99 | 70.1 | inactive |
| SLC67A1-AS | SID160778443 | -0.776 | 66.5 | -0.82 | 92.2 | inactive |
| SLC67A1-AS | SID160778444 | -1.18 | 58.3 | -0.209 | 68.9 | inactive |
| B3GALT9 | SID160767440 | -0.459 | 72.8 | -0.417 | 90.7 | inactive |
| B3GALT9 | SID160767441 | -0.215 | 77.6 | -0.309 | 94.1 | inactive |
| B3GALT9 | SID160767442 | -0.44 | 73.1 | -0.793 | 101 | inactive |
| LOC643441 | SID160768889 | 0.395 | 89.8 | -0.198 | 106 | inactive |
| LOC643441 | SID160768890 | 1.6 | 114 | 1.9 | 76.9 | inactive |
| LOC643441 | SID160768891 | -0.191 | 78.1 | -0.469 | 98.7 | inactive |
| ECH1 | SID160757842 | 1.21 | 106 | 1.29 | 84.2 | inactive |
| ECH1 | SID160757853 | 1.82 | 118 | 1.16 | 97.1 | inactive |
| ECH1 | SID160757864 | -0.0595 | 80.7 | -0.68 | 108 | inactive |
